From patent CN116217727A
These are yes or no findings as the source states them, for the method shown. Some results given as binding are weak or reduced against the parent protein; the word gives no strength.

By UniProt entry, the sequences of proteins in these tests, tags left out. Where a name states a change or a piece, a line headed by the entry shows the natural chain unless it says otherwise. Residues count along the entry.
UniProt P20273: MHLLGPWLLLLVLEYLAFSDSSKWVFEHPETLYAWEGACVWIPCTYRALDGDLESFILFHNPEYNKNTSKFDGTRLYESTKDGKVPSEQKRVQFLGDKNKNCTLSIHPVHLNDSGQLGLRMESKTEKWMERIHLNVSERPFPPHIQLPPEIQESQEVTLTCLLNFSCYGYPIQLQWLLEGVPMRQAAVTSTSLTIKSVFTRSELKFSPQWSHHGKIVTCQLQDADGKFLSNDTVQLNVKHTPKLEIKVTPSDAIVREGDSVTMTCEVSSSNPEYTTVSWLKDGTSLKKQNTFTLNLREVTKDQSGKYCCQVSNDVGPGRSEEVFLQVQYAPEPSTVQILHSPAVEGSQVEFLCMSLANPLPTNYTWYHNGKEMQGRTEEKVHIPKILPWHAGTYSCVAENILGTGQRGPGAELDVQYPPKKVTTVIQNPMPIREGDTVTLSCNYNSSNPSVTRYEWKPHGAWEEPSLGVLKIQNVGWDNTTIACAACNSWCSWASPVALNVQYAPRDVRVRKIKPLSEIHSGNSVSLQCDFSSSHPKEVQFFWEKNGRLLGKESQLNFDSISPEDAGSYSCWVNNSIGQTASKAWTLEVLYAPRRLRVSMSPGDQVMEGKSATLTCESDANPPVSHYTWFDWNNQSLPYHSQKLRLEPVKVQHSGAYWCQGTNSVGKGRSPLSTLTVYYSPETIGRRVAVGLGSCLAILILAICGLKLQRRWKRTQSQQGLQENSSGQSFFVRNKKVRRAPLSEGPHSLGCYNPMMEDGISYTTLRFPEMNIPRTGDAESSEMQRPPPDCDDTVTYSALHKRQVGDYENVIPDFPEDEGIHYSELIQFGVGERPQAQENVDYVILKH
CD22 on K562-CD22 cells: residues 20-847 of P20273
人CD22抗原 (human CD22 antigen, coated in ELISA): residues 20-687 of P20273

B1: SK-03-B09/D-2-13 (scFv, V domains shown)
VH: QVQLVQSGAEVKKPGASVKVSCKASGYTFTSYGISWVRQAPGQGLEWMGWISAYNGNTNYAQKLQGRVTMTTDTSTSTAYMELRSLRSDDTAVYYCARDFQGIAVADLDYWGQGTLVTVSS
VL: ETTLTQSPATLSVSPGERATLSCRASQSVSSNLAWYQQKPGQAPRLLIYGASTRATGIPARFSGSGSGTEFTLTISSLQSEDFAIYYCQQYHSWPPLTFGGGTKLEIKR
B2: SK-04-E07/E-1-35 (scFv, V domains shown)
VH: EVQLQQSGPGLVKPSQTLSLTCAISGDSVSSNSAAWNWIRQSPSRGLEWLGRTYYRSKWYNDYAVSVKSRITINPDTSKNQFSLQLNSVTPEDTALYYCARSVGIARWDVWGQGTTVTVSS
VL: DIQLTQSPSSLSASVGDRVTITCRASQSISSYLNWYQQKPGKAPELLIYSASTLHGELPSRFSGSGSGTDFNLTISSLQPEDFATYYCQQSFTTPFTFGPGTKVDIKR
B3: SK-01-A14/E-1-29 (scFv, V domains shown)
VH: EVQLVESGGGVVQPGRSLRLSCAASGFKFDDYPMHWVRQPPGRGLEWVSLISWDGKTTYIGDSLKGRFTVSRDNNKNSLYLEINNLRSEDGALYYCAKDRSRTGWGYGGMDVWGRGTMVTVSS
VL: DIQLTQSPSSLSASVGDRVTITCRTSQTIDNYLNWYQVKSGKAPKLLIYAASSLQSGVPSRFSGSGSGTDFTLTISSLQPEDFATYYCQQSYSTPPMYTFGQGTKLEIKG

Legend:
[1] = molecular target: CD22单价抗原 (monovalent CD22 antigen) (UniProt P20273); test: BLI (Octet K2), scFv on sensor, CD22 monovalent antigen as analyte
CD22 on K562-CD22 cells = CD22 on K562-CD22 cells (UniProt P20273); test: flow cytometry on CD22-positive cells
[2] = molecular target: 人CD22抗原 (human CD22 antigen, coated in ELISA) (human) (UniProt P20273); test: phage ELISA on coated CD22 antigen, anti-M13-HRP

Binder	binding [1]	binding (CD22 on K562-CD22 cells)	binding [2]
B1	binds	binds	binds
B2	binds	binds	binds
B3	–	binds	binds
